Data from US20230036655A1 (OTSUKA PHARMACEUTICAL, published 2023).
Results are given in words; binding and its absence hold for the method and conditions named. Some binding calls cover weakened binding; strength is not graded here.

Target: T1, human GDF15 (hGDF15), mature, wild-type (human, UniProt Q99988 197-308)
T1 construct: Bought recombinant protein: R&D Systems 957-GD-025/CF in most assays, 9279-GD in the crystal and the GDF15/GFRAL/RET assay; It was biotinylated in the GFRAL assay; also called hGDF15 (WT); rhGDF15
T1 sequence: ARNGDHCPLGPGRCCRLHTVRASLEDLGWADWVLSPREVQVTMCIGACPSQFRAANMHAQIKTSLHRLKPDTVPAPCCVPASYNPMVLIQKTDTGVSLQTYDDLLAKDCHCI
Assay: ELISA, hGDF15 immobilised

B1: H48S-L7 (antibody, human IgG1, kappa, V domains shown)
VH: QVQLQESGPGLVKPSETLSLTCTVSGFSISSDCYWIWIRQPPGKGLEYIGYTFYSGITYYNPSLASRTTISRDTSKNQFSLKLSSVTAADTAVYYCARDCDYAMDYWGQGTLVTVSS
VL: DIQMTQSPSSLSASVGDRVTITCRASQDISNYLNWYQQKPGKAVKLLIHYTSTLHSGVPSRFSGSGSGTDYTLTISSLQPEDFATYFCQQGNTLPWTFGQGTKLEIKR
notes: Tested as culture supernatant; also called HuMAB2 variant H48S
binding: binds
